The values that follow come from the supplement of paper PMC12819154, “High-throughput peptide-centric local stability assay extends protein–ligand identification to membrane proteins, tissues and bacteria” (Nature Structural & Molecular Biology, 2025).

By UniProt entry, the sequences of proteins in these tests, tags left out. Where a name states a change or a piece, a line headed by the entry shows the natural chain unless it says otherwise.
UniProt Q61823: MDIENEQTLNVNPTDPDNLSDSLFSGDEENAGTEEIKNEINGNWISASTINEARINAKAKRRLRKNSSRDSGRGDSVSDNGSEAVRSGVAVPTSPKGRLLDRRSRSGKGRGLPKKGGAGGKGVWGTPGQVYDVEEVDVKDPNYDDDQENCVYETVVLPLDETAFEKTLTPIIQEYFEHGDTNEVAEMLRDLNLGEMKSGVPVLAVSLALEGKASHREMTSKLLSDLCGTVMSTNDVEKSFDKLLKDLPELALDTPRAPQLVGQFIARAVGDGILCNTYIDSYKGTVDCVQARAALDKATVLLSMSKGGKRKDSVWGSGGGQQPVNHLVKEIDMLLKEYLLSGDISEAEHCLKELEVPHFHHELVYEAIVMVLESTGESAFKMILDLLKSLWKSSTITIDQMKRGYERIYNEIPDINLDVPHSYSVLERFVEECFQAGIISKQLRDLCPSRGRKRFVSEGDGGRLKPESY
UniProt Q673H1: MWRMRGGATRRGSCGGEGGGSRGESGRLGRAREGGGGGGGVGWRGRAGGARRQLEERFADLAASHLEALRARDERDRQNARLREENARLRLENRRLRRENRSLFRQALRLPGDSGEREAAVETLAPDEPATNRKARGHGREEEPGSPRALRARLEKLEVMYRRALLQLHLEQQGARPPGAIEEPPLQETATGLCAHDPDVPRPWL
UniProt Q64282: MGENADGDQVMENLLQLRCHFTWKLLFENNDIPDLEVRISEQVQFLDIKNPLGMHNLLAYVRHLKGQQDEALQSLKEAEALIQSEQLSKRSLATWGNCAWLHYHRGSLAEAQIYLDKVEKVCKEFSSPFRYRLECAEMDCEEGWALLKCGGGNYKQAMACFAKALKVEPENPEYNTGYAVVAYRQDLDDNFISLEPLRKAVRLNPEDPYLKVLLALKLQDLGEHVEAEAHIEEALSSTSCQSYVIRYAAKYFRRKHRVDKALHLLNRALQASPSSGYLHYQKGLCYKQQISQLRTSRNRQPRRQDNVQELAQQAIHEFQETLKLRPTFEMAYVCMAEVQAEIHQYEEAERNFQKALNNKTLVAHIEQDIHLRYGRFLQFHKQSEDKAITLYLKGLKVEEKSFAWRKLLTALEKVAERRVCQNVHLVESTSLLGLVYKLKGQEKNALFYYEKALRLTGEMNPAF
UniProt Q61545: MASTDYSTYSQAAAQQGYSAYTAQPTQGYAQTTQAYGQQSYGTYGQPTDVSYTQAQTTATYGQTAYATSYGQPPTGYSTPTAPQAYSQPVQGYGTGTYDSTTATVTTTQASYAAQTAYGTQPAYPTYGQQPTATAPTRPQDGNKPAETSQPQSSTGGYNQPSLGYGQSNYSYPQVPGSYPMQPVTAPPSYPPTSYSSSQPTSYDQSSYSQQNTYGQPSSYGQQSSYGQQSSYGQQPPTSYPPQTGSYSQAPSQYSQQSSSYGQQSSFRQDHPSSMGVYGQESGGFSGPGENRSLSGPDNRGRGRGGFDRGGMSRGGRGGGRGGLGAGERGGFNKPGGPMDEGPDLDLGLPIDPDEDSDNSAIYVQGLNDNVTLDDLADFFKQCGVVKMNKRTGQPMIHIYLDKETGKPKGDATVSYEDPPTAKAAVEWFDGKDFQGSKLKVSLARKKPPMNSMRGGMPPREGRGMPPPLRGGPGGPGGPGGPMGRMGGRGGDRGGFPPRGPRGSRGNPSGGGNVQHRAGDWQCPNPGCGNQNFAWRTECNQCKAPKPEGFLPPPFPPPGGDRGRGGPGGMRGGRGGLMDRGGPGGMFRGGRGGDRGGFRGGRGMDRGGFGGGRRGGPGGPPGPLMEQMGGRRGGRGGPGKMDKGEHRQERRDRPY
UniProt Q61646: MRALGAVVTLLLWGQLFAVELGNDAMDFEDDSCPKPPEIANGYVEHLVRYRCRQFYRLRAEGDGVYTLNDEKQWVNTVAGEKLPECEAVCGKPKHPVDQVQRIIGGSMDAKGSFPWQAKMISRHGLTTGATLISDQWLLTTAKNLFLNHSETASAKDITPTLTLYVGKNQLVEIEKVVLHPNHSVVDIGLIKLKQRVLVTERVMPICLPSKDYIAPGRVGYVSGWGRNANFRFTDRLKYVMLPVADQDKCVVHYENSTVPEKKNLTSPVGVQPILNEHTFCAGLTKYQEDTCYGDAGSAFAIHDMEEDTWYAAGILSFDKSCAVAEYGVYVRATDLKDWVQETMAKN
UniProt Q62348: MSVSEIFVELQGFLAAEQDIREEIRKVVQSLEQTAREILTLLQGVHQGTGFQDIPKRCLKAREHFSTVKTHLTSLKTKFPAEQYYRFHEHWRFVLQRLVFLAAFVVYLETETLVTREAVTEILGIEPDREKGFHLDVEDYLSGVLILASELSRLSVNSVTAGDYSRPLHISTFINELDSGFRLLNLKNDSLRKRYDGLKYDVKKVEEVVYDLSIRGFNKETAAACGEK
UniProt Q61686, whole entry: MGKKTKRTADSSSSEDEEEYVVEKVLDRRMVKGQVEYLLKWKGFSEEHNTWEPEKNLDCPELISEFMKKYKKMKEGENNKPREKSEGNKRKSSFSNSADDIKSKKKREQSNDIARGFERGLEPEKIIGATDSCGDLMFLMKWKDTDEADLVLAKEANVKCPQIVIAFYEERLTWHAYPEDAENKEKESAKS
UniProt Q61333: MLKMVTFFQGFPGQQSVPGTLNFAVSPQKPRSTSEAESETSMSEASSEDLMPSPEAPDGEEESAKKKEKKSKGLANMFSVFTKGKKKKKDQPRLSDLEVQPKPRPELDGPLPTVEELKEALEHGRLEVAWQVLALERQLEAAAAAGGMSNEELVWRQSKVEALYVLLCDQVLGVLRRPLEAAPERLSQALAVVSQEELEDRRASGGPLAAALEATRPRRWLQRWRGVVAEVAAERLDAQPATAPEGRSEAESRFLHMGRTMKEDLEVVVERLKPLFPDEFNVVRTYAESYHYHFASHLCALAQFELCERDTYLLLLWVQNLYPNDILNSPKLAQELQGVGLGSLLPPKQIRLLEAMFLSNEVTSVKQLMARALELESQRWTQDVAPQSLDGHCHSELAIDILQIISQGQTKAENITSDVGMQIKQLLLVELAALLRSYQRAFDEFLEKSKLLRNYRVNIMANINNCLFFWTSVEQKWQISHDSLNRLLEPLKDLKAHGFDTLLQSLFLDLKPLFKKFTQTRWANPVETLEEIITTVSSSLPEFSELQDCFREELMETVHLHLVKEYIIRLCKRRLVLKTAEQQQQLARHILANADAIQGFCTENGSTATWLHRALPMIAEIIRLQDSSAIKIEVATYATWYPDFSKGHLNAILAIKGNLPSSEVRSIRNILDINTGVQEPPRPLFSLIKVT
UniProt Q61881, whole entry: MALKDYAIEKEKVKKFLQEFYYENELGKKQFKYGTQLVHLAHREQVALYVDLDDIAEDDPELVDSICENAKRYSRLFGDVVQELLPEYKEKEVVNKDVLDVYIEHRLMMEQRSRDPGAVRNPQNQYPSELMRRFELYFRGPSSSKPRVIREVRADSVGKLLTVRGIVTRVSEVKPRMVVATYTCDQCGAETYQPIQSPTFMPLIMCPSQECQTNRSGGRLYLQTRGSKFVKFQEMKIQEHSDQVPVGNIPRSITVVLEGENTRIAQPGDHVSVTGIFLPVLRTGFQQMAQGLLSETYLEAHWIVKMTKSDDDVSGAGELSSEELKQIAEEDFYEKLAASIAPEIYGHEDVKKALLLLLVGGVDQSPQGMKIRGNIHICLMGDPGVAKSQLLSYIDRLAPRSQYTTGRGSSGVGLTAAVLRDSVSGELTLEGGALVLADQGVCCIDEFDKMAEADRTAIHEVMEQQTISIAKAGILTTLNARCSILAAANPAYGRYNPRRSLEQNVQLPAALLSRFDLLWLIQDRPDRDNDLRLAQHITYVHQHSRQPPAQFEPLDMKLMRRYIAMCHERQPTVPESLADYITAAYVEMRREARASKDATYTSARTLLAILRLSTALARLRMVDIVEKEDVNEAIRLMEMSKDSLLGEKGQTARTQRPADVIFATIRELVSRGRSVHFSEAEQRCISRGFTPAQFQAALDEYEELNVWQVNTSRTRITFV
UniProt Q69ZN7: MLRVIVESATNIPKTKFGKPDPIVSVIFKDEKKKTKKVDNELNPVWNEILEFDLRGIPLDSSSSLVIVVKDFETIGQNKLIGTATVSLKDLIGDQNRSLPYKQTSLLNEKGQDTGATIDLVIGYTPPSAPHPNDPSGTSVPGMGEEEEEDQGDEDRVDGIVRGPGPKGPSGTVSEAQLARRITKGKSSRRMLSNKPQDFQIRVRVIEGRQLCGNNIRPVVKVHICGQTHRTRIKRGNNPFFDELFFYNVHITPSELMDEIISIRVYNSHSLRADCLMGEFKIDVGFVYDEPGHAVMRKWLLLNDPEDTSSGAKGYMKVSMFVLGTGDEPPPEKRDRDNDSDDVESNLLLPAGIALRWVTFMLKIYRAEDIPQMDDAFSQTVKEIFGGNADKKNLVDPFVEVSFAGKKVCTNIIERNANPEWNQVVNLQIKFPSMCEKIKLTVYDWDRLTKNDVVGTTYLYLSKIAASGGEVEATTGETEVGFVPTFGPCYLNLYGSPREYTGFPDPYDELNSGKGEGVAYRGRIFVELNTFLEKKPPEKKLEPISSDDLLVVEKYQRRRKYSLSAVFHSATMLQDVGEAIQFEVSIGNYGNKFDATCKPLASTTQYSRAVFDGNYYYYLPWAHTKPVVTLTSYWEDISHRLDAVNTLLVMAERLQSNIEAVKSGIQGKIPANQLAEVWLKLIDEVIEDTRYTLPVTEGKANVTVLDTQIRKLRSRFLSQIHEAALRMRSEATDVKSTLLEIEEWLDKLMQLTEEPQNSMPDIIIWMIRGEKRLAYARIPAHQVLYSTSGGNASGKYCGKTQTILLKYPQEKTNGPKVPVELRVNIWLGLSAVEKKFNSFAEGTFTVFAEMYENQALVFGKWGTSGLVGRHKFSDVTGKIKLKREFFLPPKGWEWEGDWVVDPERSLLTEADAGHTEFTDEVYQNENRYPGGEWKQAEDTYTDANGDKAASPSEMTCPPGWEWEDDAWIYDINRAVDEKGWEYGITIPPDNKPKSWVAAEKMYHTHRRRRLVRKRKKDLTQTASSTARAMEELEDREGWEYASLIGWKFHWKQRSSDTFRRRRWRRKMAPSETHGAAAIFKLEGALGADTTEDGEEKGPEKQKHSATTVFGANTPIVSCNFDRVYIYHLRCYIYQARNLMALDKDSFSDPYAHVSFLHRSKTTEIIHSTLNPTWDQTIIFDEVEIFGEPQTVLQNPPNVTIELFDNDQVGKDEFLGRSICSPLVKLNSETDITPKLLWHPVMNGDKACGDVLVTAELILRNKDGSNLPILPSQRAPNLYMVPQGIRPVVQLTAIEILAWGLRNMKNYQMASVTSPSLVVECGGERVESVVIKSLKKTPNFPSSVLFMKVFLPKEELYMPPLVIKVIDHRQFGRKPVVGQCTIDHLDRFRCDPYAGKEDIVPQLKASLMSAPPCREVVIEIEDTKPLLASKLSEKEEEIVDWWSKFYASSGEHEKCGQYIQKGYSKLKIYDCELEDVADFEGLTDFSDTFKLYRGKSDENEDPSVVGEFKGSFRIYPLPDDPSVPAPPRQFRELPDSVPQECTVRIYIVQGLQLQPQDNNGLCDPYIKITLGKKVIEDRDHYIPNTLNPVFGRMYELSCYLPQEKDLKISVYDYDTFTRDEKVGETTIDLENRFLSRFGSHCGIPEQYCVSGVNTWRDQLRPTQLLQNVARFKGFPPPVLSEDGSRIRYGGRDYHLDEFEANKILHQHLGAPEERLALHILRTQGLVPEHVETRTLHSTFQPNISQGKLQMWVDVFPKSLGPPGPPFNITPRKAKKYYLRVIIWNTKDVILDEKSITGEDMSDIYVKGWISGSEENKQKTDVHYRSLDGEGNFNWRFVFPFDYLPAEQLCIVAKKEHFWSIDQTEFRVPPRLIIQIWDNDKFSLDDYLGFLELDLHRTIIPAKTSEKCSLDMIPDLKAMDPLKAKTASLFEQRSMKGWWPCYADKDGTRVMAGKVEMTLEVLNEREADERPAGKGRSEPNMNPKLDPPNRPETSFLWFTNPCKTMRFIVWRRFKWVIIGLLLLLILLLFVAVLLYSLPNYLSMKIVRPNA
UniProt Q61490: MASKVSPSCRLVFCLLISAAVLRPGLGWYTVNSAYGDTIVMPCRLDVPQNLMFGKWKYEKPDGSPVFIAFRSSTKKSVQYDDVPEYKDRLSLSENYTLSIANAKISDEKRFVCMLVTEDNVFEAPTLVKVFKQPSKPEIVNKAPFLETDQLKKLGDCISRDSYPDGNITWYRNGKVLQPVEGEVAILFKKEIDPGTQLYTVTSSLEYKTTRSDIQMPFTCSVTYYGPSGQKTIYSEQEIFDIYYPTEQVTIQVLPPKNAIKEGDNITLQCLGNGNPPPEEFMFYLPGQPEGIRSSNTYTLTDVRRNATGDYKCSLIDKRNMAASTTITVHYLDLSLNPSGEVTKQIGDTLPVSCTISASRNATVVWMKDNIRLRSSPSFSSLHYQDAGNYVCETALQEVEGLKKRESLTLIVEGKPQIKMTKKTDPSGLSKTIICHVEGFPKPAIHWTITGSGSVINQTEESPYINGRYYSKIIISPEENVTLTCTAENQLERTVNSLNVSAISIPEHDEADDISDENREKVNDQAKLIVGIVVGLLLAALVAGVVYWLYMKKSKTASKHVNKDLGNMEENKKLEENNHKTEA

The other results are listed elsewhere or left out. Most entries show no effect beyond the scatter of the controls.

Compound in the experiment: CN[C@@H]1C[C@H]2O[C@@](C)([C@@H]1OC)n1c3ccccc3c3c4c(c5c6ccccc6n2c5c31)C(=O)NC4 [staurosporine]
In words: log2 fold change of tryptic peptide abundance, ligand vs vehicle (limited proteolysis) (log2 ratio); higher = more trypsin-susceptible (destabilized). The settings on record: ligand concentration: 20 uM; sample: mouse liver crude lysate; replicate design: treated separately.
As for “UniProt Q61749 (peptide sequence: VVVVDSRPR, peptide start residue: 359)”, the log2 fold change is -0.437.
For “UniProt Q61464 (peptide sequence: KDYQSEADLPIR, peptide start residue: 369)”, the log2 fold change is -0.401.
The value for “UniProt Q62440 (peptide sequence: SPMVGFDPPPHMR, peptide start residue: 416)” was -0.216; that for “UniProt Q61823 (peptide sequence: EIDMLLK, peptide start residue: 330)” was -0.385.
Regarding “UniProt Q64516 (peptide sequence: EILDAMNR, peptide start residue: 412)”, the log2 fold change was 0.198.
The value for “UniProt Q61655 (peptide sequence: TASWLAAELSK, peptide start residue: 344)” was 0.27; that for “UniProt Q673H1 (peptide sequence: EAAVETLAPDEPATNRK, peptide start residue: 118)” was 0.0634.
Turning to “UniProt Q64282 (peptide sequence: SLATWGNCAWLHYHR, peptide start residue: 91)”, the log2 fold change is 0.365.
For the target “UniProt Q61419 (peptide sequence: EYILYKEKDHLK, peptide start residue: 37)”, the log2 fold change is -0.186.
The value for “UniProt Q63870 (peptide sequence: PGLAGKK, peptide start residue: 2643)” was 0.118; that for “UniProt Q62141 (peptide sequence: FLDHPEIYR, peptide start residue: 168)” was 0.462.
As for “UniProt Q61545 (peptide sequence: TGQPMIHIYLDK, peptide start residue: 392)”, the log2 fold change turned out to be 0.341.
Take “UniProt Q65Z40 (peptide sequence: DSQLIISSAK, peptide start residue: 887)”: the log2 fold change was -0.597.
Turning to “UniProt Q62172 (peptide sequence: QIASEKEEIDR, peptide start residue: 506)”, the log2 fold change was determined as 0.277.
In the case of “UniProt Q64151 (peptide sequence: GGSGHPLPELADELRR, peptide start residue: 801)” it was -0.476.
On to “UniProt Q68EF0 (peptide sequence: CALTGQSKPCR, peptide start residue: 347)”, for which the log2 fold change was found to be 0.36.
In the case of “UniProt Q61646 (peptide sequence: QWVNTVAGEKLPECEAVCGKPK, peptide start residue: 73)” it was -0.204.
In the case of “UniProt Q62151 (peptide sequence: KPPQQLEWK, peptide start residue: 44)” it was 0.224.
Take “UniProt Q62348 (peptide sequence: EAVTEILGIEPDREK, peptide start residue: 117)”: the log2 fold change is -0.228.
In the case of “UniProt Q640N1 (peptide sequence: EILAMNGNRPILR, peptide start residue: 983)” it was -0.245; in that of “UniProt Q62280 (peptide sequence: GEITPAAIQK, peptide start residue: 14)”, -0.071.
For the target “UniProt Q61686 (peptide sequence: SSFSNSADDIK, peptide start residue: 92)”, the log2 fold change was found to be 0.151.
The value for “UniProt Q61333 (peptide sequence: LDAQPATAPEGR, peptide start residue: 236)” was -0.237; that for “UniProt Q64314 (peptide sequence: GAQENGTGQATSR, peptide start residue: 355)” was -0.0601.
In the case of “UniProt Q61881 (peptide sequence: YGTQLVHLAHR, peptide start residue: 33)” it was 0.282; in that of “UniProt Q69ZN7 (peptide sequence: GPSGTVSEAQLAR, peptide start residue: 168)”, 0.0591; in that of “UniProt Q64430 (peptide sequence: YNPAVIQPR, peptide start residue: 523)”, 0.28.
For the target “UniProt Q61490 (peptide sequence: HVNKDLGNMEENK, peptide start residue: 560)”, the log2 fold change was 0.666.
